# The whole screen tested about 360,000 compounds, of which about 780 (0.22%) were called active. Inconclusive results, whose numbers are uncertain, are shown with a selection of clear calls. Cut-off read from the data, not from the text of the source: active = inhibition above about 35% (passing the limit was not always enough); inconclusive = no clear call, values can overlap the other calls.
# System: Botulinum neurotoxin type F light chain protease (Clostridium botulinum)
# Assay: BoNT/F light chain protease inhibitors, primary screen, biochemical, flow cytometry, MLPCN library (AID 588497); note: plate controls were buffer without enzyme for full effect and enzyme alone for no effect
# Conditions: Multiplex microsphere protease cleavage assay, at 10 µM, active compounds read high
row,SMILES,inhibition
1,CCCNS(=O)(=O)c1ccc(NC(=O)Cc2cccs2)cc1,inconclusive: -31.7%
2,COCCNS(=O)(=O)c1ccc2c(c1)C(=O)c1cc(S(=O)(=O)NCCOC)ccc1-2,inactive: 1.3%
3,Cc1nc(N)sc1-c1csc(Nc2cccc(O)c2)n1,inconclusive: -46.7%
4,O=c1c(/C=C(\O)c2ccc(F)cc2)nc2ccccc2n1-c1ccccc1,active: 194%
5,CC(C)(C)c1ccccc1OCC(=O)NCc1ccccc1,inconclusive: -14.7%
6,COc1ccc(S(=O)(=O)N(CC(=O)NN=C2CCN(C)CC2)c2ccc(C)cc2)cc1OC,inconclusive: 9%
7,c1ccc(Cn2c3ccccc3c3nnc(SCCN4CCCCC4)nc32)cc1,inconclusive: -46.2%
8,COc1cccc(C(=O)NNS(=O)(=O)c2ccc(C)cc2)c1,inconclusive: 24.5%
9,COc1ccccc1NC(=O)c1ccc2c(c1)C(=O)N(c1ccccc1OC)C2=O,inconclusive: -16.2%
10,COc1ccc(/C(O)=C2/C(=O)C(=O)N(c3ncccn3)C2c2ccc(F)cc2)cc1 (stereo unspecified),inconclusive: 1.8%
11,CC1(C)CC(CC(=O)Nc2ccccn2)C(=O)O1 (stereo unspecified),inactive: -0.6%
12,O=C(CCn1c(=O)oc2cc(Cl)ccc21)Nc1ccc(N2CCOCC2)cc1,inactive: -4.4%
13,O=[N+]([O-])c1ccc(CSC2=NCCS2)cc1,inconclusive: -13.1%
14,O=C(CN1CCCC1)NC(c1ccccc1)c1ccccc1,inconclusive: 34.1%
15,C=CCN1C(=O)C2(OCCCO2)c2cc(Cl)ccc21,inconclusive: 1.1%
16,Cc1ccccc1-n1c(C)nc2ccsc2c1=O,inconclusive: -2.7%
17,O=S(=O)(NC1CCCCCCC1)OCC(Cl)(Cl)Cl,inactive: -6.2%
18,CC(=O)Nc1ccc(NC(=O)C2CCN(c3ccc(C(F)(F)F)cn3)CC2)cc1,inactive: 0.3%
19,O=C(O)c1cccc(-c2ccc(/C=N/NC(=O)c3cccnc3)o2)c1,inactive: -18.1%
20,O=C1CC(C(=O)N(CC2CCCO2)C(C(=O)NC2CCCCC2)c2ccncc2)CS1 (stereo unspecified),inactive: 15.6%
21,COc1ccc(C2=NOC(C(=O)NCCCN3CCOCC3)C2)cc1 (stereo unspecified),inactive: -10.3%

# A run of entries taken from the entries so far:
row,SMILES,inhibition
20,O=C1CC(C(=O)N(CC2CCCO2)C(C(=O)NC2CCCCC2)c2ccncc2)CS1 (stereo unspecified),inactive: 15.6%
21,COc1ccc(C2=NOC(C(=O)NCCCN3CCOCC3)C2)cc1 (stereo unspecified),inactive: -10.3%

# Continuation:

row,SMILES,inhibition
1,COc1ccc(CNC(=S)Nc2ccccc2Cl)cc1,inconclusive: 18.7%
2,C=Cn1cc[n+](CC(=O)c2ccc(-c3ccccc3)cc2)c1,inconclusive: -21.4%
3,Cc1cccn2c(=O)c3cc(C(=O)NCC4CCCO4)c(=N)n(CCN4CCOCC4)c3nc12 (stereo unspecified),inactive: 17.8%
4,Cn1c(=O)c2[nH]cnc2n(-c2ccccc2)c1=O,inconclusive: 1.6%
5,CC(C)(C)C(=O)NC(=S)Nc1ccc(F)cc1,inactive: -1.7%
6,Nc1c(-c2cccs2)cnn1-c1nc(-c2ccc(F)cc2)cs1,inactive: 1%
7,CC(=O)c1cccc(Nc2nc(-c3cccnc3)cs2)c1,inconclusive: 29.2%
8,Fc1ccccc1-c1nnc2ccc3ccccc3n12,inconclusive: 13.6%
9,Cc1ccc(S(=O)(=O)Nc2ccc(C(=O)NCCCN3CCOCC3)cc2)cc1[N+](=O)[O-],inactive: -3.2%
10,O=S1(=O)CCN2C=C(Cl)C=C(Cl)C2=N1,inactive: 2.6%
11,O=C(N/C(=C\c1ccc(O)cc1)C(=O)N1CCCCC1)c1ccccc1,inconclusive: -38.3%
12,Cc1ccc(C)c2c1c1ccccc1n2C,inconclusive: -23.3%
13,CCN1CCc2c(sc(N)c2C#N)C1,inactive: -26.1%
14,Cc1cccc(NC(=O)Nc2ccc(Cl)c(Cl)c2)n1,inconclusive: 1%
15,O=C(O)c1ccc(NC(=O)c2ccc3c(c2)C(=O)N(c2ccccc2)C3=O)cc1,active: 37.8%
16,CC(=O)NCC1CCCN(Cc2cn(-c3ccccc3F)nc2-c2cc(C)sc2C)C1 (stereo unspecified),inactive: -5.9%
17,O=S(=O)(Nc1ccccn1)c1ccc(Br)cc1,inconclusive: 29.4%
18,CC1(C)CC(NC(=O)C(c2ccccc2)c2ccccc2)CC(C)(C)N1,inconclusive: 15%
19,c1ccc(-c2nccc3ccccc23)cc1,inconclusive: 43%
20,CCN(CC)C(=O)Oc1nnc(SC(C)C)n1-c1ccc(Cl)cc1,inconclusive: 27.9%
21,CN1CCN(c2ccc(CNS(=O)(=O)c3cccc(F)c3)cc2)CC1,inconclusive: 99.5%

row,SMILES,inhibition
1,CC(=O)NCCC(=O)Nc1ncc(S(=O)(=O)c2ccc([N+](=O)[O-])cc2)s1,inconclusive: 9.6%
2,Cc1nn(-c2ccccc2)nc1CNC(=O)CC(C)(C)C,inconclusive: -53.7%
3,COc1ccc2oc(=O)c(C(=O)NCc3ccc(C)cc3)cc2c1,inconclusive: -32%
4,COc1cccc(NC(=O)CN(C)C(=O)CSc2nc3ccccc3s2)c1,inconclusive: -1.8%
5,Nc1nc2c(s1)C(=O)CCC2,inactive: 8.3%
6,CCOC(=O)c1cnc2c(CC)cccc2c1NCCN1CCOCC1,inconclusive: -13.5%
7,CCCNC(=O)C1(C)CCN1C(=O)c1ccc(C(C)(C)C)cc1 (stereo unspecified),inactive: -2.1%
8,COCCn1cc(C(=O)N2CCN(C)CC2)c2c3ccccc3n(C)c2c1=O,inactive: 6.1%
9,O=S(=O)(c1cc(F)ccc1F)N1CCN2CCCC2C1 (stereo unspecified),inconclusive: 6.2%
10,CCOC(=O)CCCNC(=O)CCNC(=O)c1ccc(OCC(C)C)cc1,inconclusive: 45.9%
11,COc1ccccc1NC(=O)CSc1nc2[nH]ncc2c(=O)[nH]1,inconclusive: 4.5%
12,CC(C)n1c(=O)[nH][nH]c1=S,inconclusive: -57%
13,COc1ccc(-c2nnn(-c3cc(Cl)cc(Cl)c3)c2N)cc1,inconclusive: -20.7%
14,O=C(Nc1ccc(Cc2ccncc2)cc1)c1ccc([N+](=O)[O-])o1,inconclusive: 13.1%
15,C=C(C)c1ccc(C(C)(C)NC(=O)NCc2ccco2)cc1,inactive: -11.4%
16,O=C(NC(=S)Nc1ccc2nc[nH]c2c1)c1ccccc1,inactive: -7.3%
17,Nc1cccc(S(=O)(=O)NC2=NCCC2)c1,inconclusive: -13.7%
18,COC(=O)c1ccccc1NC(=O)CN(c1ccc(C)cc1)S(C)(=O)=O,inconclusive: -3.2%
19,COc1ccc(CCNc2ncnc3c2nnn3Cc2ccccc2)cc1,inconclusive: 6.2%
